{"source": "PubChem BioAssay AID1671195 (Yale University, 2021)", "screen": "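Genes whose knockdown alters LDL uptake in liver cancer cells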 (primary screen)", "cells": "human Huh7 hepatoma cells", "reagent": "siRNA pool against human genes, 18 nM", "timing": "about 2 to 2.5 days of knockdown, then 8 h LDL uptake", "challenge": "DiI-labelled LDL at 30 µg/ml for 8 h, in lipoprotein-deficient serum medium", "read-out": "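Per-cell DiI-LDL intensity by automated imaging; well means scaled to the plate median and given as a robust z-score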", "direction": "robust z-score: higher = more LDL uptake after knockdown", "active means": "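Active when two or more replicates show a robust z-score above 2 or below -2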", "note": "Here is one part, drawn at random, of about 22,000 reagents tested. About 1,510 of all reagents (6.9%) were called active. 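Active includes knockdowns raising or lowering LDL uptake; positive z-scores mean more uptake, negative mean less.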 Reagents against one gene are numbered here."}
{"gene": "EEIG2 (EEIG family member 2)", "reagent no.": 1, "robust z-score, replicate 1": -0.338, "robust z-score, replicate 2": -0.131, "robust z-score, replicate 3": 0.176, "Call": "inactive"}
{"gene": "NDUFA5 (NADH:ubiquinone oxidoreductase subunit A5)", "reagent no.": 1, "robust z-score, replicate 1": 0.863, "robust z-score, replicate 2": -0.274, "robust z-score, replicate 3": -0.981, "Call": "inactive"}
{"gene": "GLUL (glutamate-ammonia ligase)", "reagent no.": 1, "robust z-score, replicate 1": 2.35, "robust z-score, replicate 2": 2.45, "robust z-score, replicate 3": 1.94, "Call": "active"}
{"gene": "MAP7 (microtubule associated protein 7)", "reagent no.": 1, "robust z-score, replicate 1": -1.97, "robust z-score, replicate 2": -1.49, "robust z-score, replicate 3": -1.91, "Call": "inactive"}
{"gene": "TJP2 (tight junction protein 2)", "reagent no.": 1, "robust z-score, replicate 1": 0.0909, "robust z-score, replicate 2": -0.343, "robust z-score, replicate 3": -0.0701, "Call": "inactive"}
{"gene": "MAPK4 (mitogen-activated protein kinase 4)", "reagent no.": 1, "robust z-score, replicate 1": 0.42, "robust z-score, replicate 2": 0.00945, "robust z-score, replicate 3": 0.825, "Call": "inactive"}
{"gene": "WIF1 (Wnt inhibitory factor 1)", "reagent no.": 1, "robust z-score, replicate 1": 0.759, "robust z-score, replicate 2": -0.454, "robust z-score, replicate 3": 0.276, "Call": "inactive"}
{"gene": "MMP10 (matrix metallopeptidase 10)", "reagent no.": 1, "robust z-score, replicate 1": -0.355, "robust z-score, replicate 2": 0.838, "robust z-score, replicate 3": 0.473, "Call": "inactive"}
{"gene": "PRR3 (proline rich 3)", "reagent no.": 1, "robust z-score, replicate 1": -0.642, "robust z-score, replicate 2": -0.391, "robust z-score, replicate 3": -0.53, "Call": "inactive"}
{"gene": "ZNF391 (zinc finger protein 391)", "reagent no.": 1, "robust z-score, replicate 1": 0.029, "robust z-score, replicate 2": -0.0479, "robust z-score, replicate 3": -0.331, "Call": "inactive"}
{"gene": "ZNF391 (zinc finger protein 391)", "reagent no.": 2, "robust z-score, replicate 1": -1.19, "robust z-score, replicate 2": -1.07, "robust z-score, replicate 3": -1.44, "Call": "inactive"}
{"gene": "WASHC2A (WASH complex subunit 2A)", "reagent no.": 1, "robust z-score, replicate 1": -0.783, "robust z-score, replicate 2": -1.11, "robust z-score, replicate 3": -0.451, "Call": "inactive"}
{"gene": "ZNF483 (zinc finger protein 483)", "reagent no.": 1, "robust z-score, replicate 1": -0.572, "robust z-score, replicate 2": -0.905, "robust z-score, replicate 3": -0.578, "Call": "inactive"}
{"gene": "ZNF235 (zinc finger protein 235)", "reagent no.": 1, "robust z-score, replicate 1": -0.108, "robust z-score, replicate 2": -0.444, "robust z-score, replicate 3": -0.505, "Call": "inactive"}
{"gene": "ARL4D (ARF like GTPase 4D)", "reagent no.": 1, "robust z-score, replicate 1": -0.461, "robust z-score, replicate 2": 2.02, "robust z-score, replicate 3": 0.528, "Call": "inactive"}
{"gene": "SLITRK2 (SLIT and NTRK like family member 2)", "reagent no.": 1, "robust z-score, replicate 1": -0.529, "robust z-score, replicate 2": -0.302, "robust z-score, replicate 3": -0.278, "Call": "inactive"}
